This experiment deals with PI3K p110α (human (endogenous in T24 and 5637)) (UniProt P42336). The experiment is described as follows: co-IP; antibodies on magnetic beads (Bio-Rad SureBeads) incubated with extracts of T24 and 5637 cells, eluate analysed by western blot; done in both directions (Derlin-1 and p110α immune complexes); Derlin-1 siRNA decreased the interaction.

Chains of the proteins cited; added tags and fusions are not shown.
UniProt P42336: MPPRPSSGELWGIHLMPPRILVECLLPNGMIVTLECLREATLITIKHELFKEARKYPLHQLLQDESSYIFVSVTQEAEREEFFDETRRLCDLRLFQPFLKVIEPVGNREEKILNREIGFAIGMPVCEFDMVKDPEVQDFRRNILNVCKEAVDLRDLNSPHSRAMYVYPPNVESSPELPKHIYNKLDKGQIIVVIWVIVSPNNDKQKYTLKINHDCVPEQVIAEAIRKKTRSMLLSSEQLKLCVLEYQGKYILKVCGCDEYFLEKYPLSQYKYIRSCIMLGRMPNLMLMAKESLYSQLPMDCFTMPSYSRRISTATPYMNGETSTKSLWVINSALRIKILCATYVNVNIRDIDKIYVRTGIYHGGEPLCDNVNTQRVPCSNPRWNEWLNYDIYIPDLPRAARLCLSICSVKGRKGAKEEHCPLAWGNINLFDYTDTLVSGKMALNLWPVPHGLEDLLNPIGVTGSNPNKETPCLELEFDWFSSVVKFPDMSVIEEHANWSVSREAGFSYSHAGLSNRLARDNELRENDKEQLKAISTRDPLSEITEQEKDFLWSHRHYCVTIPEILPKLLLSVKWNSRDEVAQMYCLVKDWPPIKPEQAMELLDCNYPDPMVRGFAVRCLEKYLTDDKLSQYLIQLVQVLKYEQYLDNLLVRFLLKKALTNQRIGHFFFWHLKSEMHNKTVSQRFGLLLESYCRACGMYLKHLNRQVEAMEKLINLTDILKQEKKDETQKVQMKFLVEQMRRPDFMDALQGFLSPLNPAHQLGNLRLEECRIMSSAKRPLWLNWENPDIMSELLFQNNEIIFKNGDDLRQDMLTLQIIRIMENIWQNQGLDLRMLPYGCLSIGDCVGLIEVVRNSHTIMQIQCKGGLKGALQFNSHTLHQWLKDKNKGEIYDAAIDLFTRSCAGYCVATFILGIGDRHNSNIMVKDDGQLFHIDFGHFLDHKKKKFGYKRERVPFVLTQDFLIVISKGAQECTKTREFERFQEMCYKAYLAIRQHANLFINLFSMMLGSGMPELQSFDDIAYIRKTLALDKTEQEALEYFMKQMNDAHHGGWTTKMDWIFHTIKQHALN

These are yes or no findings as the source states them, for the method shown. In cells and extracts the contact can be indirect. Some entries that bind do so weakly or less than the wild type.

B1: Derlin-1 (protein, UniProt Q9BUN8 1-251)
chain: MSDIGDWFRSIPAITRYWFAATVAVPLVGKLGLISPAYLFLWPEAFLYRFQIWRPITATFYFPVGPGTGFLYLVNLYFLYQYSTRLETGAFDGRPADYLFMLLFNWICIVITGLAMDMQLLMIPLIMSVLYVWAQLNRDMIVSFWFGTRFKACYLPWVILGFNYIIGGSVINELIGNLVGHLYFFLMFRYPMDLGGRNFLSTPQFLYRWLPSRRGGVSGFGVPPASMRRAADQNGGGGRHNWGQGFRLGDQ
As to B1, the binding entry is “binds”.

For the origin of these results see publication PMC5370022.
